Source: article doi:10.1101/749853
These are yes or no findings as the source states them, for the method shown. In cells and extracts the contact can be indirect. Some entries that bind do so weakly or less than the wild type. Tags and fused reporters may be left off the sequences shown.

By UniProt entry, the sequences of proteins in these tests, tags left out.
UniProt Q9C030: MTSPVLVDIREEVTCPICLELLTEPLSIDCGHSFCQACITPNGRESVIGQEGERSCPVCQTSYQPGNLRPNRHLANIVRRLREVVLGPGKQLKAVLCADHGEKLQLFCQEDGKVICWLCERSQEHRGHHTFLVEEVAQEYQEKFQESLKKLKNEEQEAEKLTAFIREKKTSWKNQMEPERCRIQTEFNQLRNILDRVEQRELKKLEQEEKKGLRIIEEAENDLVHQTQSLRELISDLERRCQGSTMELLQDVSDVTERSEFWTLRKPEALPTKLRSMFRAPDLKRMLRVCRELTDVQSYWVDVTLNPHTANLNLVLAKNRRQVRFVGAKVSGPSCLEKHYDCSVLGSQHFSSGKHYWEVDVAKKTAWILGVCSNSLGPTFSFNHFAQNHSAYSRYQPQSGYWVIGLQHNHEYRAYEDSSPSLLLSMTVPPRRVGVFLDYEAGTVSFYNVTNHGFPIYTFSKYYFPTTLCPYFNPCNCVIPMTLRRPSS

Target: T1, FLAG-tagged VAMP8 (UniProt Q9BV40)
T1 sequence: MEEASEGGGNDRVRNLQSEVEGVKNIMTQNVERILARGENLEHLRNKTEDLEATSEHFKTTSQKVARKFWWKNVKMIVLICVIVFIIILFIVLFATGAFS
Assay: co-IP

- binding: binds
Substance: HA-tagged TRIM6 (from UniProt Q9C030 1-488)
